Results are given in words; binding and its absence hold for the method and conditions named. Binding seen in cells or lysates may run through a third protein. Some binding calls cover weakened binding; strength is not graded here.
Columns and labels:
[1] = biological target: histone deacetylase 6 (HDAC6), endogenous in hTERT-RPE1 cells (UniProt Q9UBN7); experiment: co-immunoprecipitation with antibody to AurA from hTERT-RPE1 whole cell lysate, Western blot (FIG. 9A legend)
[2] = biological target: histone deacetylase 6 (HDAC6), endogenous in hTERT-RPE1 cells (UniProt Q9UBN7); experiment: co-immunoprecipitation from hTERT-RPE1 cell lysate with anti-AurA antibody, Western blot for HDAC6; not eliminated by pre-treatment with PHA-680632

Sequences of proteins named here, by UniProt entry; tags and fusion partners are left off.
UniProt Q9UBN7: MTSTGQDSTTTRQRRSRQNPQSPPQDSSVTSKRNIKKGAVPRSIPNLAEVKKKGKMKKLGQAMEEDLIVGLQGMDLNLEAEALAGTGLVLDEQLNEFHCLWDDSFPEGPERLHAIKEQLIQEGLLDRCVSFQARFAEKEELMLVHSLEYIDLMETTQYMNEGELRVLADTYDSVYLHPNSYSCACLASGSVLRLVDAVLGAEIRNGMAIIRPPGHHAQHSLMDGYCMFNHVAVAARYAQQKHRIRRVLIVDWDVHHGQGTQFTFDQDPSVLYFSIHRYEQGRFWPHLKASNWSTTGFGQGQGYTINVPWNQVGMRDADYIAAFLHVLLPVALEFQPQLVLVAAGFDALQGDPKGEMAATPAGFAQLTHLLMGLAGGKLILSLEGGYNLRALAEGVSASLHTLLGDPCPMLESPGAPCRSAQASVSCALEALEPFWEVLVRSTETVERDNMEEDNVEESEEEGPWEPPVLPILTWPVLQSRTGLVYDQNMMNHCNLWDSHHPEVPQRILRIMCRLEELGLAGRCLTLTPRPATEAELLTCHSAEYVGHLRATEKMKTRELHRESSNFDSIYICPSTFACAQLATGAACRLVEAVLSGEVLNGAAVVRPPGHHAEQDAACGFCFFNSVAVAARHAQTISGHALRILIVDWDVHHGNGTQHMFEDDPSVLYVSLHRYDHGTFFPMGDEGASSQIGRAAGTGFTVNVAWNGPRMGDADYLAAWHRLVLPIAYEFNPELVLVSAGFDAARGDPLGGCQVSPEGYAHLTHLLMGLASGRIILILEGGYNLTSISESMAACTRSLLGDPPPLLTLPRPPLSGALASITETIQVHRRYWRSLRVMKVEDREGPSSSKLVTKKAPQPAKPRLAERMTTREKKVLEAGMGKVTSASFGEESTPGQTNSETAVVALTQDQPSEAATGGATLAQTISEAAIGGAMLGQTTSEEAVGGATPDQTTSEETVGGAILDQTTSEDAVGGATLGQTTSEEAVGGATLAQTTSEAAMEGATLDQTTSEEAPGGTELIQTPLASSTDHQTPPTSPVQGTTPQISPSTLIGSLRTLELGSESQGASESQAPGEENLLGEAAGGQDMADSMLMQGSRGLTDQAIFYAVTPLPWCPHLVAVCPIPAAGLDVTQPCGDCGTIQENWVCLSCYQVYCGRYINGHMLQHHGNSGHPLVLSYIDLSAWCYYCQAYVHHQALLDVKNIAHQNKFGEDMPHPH

B1: Aurora A (AurA) kinase, endogenous in hTERT-RPE1 cells (enzyme, human, UniProt O14965 1-403, looked up)
chain: MDRSKENCISGPVKATAPVGGPKRVLVTQQFPCQNPLPVNSGQAQRVLCPSNSSQRIPLQAQKLVSSHKPVQNQKQKQLQATSVPHPVSRPLNNTQKSKQPLPSAPENNPEEELASKQKNEESKKRQWALEDFEIGRPLGKGKFGNVYLAREKQSKFILALKVLFKAQLEKAGVEHQLRREVEIQSHLRHPNILRLYGYFHDATRVYLILEYAPLGTVYRELQKLSKFDEQRTATYITELANALSYCHSKRVIHRDIKPENLLLGSAGELKIADFGWSVHAPSSRRTTLCGTLDYLPPEMIEGRMHDEKVDLWSLGVLCYEFLVGKPPFEANTYQETYKRISRVEFTFPDFVTEGARDLISRLLKHNPSQRPMLREVLEHPWITANSSKPSNCQNKESASKQS
For B1, which binding [1] is on record?
The binding was “binds”.

What about the binding [2] of the same binder?
Its binding is “binds”.
